Measured values as given in PMC12229345.
Results are given in words; binding and its absence hold for the method and conditions named. In cells and extracts the contact can be indirect. Some binding calls cover weakened binding; strength is not graded here.

Protein sequences, listed by entry. Tags and fused reporters are not part of them. Lines headed by an entry give the natural chain unless they say otherwise; changes in a name come on top. Chains listed by the source or under a name are the forms on record and can include a tag or linker. Residues count along the entry.
UniProt O75973, residues 17-258: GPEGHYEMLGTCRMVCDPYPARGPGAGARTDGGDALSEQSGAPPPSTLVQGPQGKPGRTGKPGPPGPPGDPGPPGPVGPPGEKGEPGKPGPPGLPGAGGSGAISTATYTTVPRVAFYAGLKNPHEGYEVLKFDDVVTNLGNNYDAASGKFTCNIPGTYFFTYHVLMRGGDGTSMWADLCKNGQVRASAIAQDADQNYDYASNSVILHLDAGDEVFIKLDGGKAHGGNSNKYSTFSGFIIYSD
His-tagged VCP ΔC-tail (deletion of amino acids 763-806) (P55072, residues 1-762): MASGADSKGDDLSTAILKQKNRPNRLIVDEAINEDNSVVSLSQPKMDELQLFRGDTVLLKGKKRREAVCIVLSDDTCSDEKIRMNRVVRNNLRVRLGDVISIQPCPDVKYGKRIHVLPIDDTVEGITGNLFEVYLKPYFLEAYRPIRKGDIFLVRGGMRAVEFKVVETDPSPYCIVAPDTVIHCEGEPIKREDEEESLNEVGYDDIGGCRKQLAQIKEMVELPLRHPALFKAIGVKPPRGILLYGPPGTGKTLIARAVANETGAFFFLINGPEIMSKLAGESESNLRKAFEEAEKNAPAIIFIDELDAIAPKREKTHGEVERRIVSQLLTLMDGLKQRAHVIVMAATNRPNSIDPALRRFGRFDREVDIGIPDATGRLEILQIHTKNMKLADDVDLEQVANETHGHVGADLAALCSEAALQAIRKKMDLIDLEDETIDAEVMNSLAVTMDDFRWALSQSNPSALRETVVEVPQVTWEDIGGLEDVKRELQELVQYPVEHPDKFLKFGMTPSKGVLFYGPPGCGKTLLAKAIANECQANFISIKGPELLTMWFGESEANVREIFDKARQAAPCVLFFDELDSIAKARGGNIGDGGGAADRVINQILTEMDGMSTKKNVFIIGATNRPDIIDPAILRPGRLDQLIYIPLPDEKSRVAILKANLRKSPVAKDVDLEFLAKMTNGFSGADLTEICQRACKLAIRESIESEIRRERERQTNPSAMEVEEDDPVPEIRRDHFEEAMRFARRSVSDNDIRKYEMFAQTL
His-tagged VCP ΔN (deletion of amino acids 1-184) (P55072, residues 185-806): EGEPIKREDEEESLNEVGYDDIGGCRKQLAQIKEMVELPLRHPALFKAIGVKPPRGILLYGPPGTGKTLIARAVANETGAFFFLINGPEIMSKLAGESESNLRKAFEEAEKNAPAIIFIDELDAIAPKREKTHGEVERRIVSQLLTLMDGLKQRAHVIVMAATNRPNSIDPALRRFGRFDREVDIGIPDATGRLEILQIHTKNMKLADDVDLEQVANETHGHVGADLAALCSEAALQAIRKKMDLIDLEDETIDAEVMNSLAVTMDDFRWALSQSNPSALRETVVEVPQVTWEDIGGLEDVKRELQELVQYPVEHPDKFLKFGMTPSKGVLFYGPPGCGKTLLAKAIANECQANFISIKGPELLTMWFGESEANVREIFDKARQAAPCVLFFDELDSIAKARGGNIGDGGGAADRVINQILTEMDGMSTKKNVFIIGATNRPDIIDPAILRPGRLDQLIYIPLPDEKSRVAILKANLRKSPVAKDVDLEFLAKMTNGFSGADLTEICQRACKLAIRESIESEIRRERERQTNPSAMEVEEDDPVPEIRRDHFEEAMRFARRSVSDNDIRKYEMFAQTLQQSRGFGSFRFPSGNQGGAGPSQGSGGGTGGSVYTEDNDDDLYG
His-tagged VCP ΔD1 (deletion of amino acids 210-463) (P55072, form named): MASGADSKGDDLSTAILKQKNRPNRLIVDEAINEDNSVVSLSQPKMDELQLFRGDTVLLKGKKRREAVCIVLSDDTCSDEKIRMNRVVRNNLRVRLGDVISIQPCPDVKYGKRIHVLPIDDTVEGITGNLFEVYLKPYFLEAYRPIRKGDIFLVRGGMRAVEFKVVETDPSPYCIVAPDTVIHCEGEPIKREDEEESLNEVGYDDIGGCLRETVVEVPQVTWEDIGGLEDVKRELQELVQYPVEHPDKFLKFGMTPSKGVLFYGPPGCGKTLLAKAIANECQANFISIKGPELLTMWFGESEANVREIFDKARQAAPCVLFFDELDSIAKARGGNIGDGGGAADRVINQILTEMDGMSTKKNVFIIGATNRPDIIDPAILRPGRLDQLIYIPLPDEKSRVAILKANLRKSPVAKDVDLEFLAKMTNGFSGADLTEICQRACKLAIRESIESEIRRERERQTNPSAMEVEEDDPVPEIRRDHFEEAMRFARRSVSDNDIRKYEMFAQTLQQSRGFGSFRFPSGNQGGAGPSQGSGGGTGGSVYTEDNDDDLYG
His-tagged VCP ΔD2 (deletion of amino acids 482-762) (P55072, form named): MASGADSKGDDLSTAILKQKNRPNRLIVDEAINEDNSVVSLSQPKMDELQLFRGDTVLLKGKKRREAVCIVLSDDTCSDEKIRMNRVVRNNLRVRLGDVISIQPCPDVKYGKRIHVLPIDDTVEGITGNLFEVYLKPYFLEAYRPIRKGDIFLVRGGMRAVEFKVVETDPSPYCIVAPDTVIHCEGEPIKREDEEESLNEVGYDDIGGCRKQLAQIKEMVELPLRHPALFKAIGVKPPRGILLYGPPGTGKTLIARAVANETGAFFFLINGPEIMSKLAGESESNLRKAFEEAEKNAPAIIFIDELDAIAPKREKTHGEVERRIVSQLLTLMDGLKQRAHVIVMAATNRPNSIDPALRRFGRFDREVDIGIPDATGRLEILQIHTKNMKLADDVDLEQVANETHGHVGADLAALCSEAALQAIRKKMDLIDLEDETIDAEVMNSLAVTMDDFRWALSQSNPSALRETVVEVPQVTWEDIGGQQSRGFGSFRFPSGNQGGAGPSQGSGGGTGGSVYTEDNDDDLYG

What follows are substances tested against C1QL1-FLAG (complement component 1, q subcomponent-like 1), stably expressed in MDA-MB-231 and MDA-MB-468 cells (UniProt O75973) (assay: co-IP; lysates (immunoprecipitation-specific RIPA buffer) of MDA-MB-231 and MDA-MB-468 cells stably expressing C1QL1-Flag; precipitated with Flag antibodies or HSP90α and VCP antibodies overnight at 4 °C, protein A and G agarose; western blot).
“heat shock protein 90α (HSP90α), endogenous in MDA-MB-231 and MDA-MB-468 cells (from UniProt P07900 1-732)” was tested, and the binding was “binds”.
“valosin-containing protein (VCP), endogenous in MDA-MB-231 and MDA-MB-468 cells (from UniProt P55072 1-806)” was tested, and the binding was “binds”.

What follows are substances tested against valosin-containing protein (VCP), endogenous in MDA-MB-231 and MDA-MB-468 cells (human (endogenous in MDA-MB-231 and MDA-MB-468)) (UniProt P55072) in the same assay as above.
With “C1QL1-FLAG (complement component 1, q subcomponent-like 1), stably expressed in MDA-MB-231 and MDA-MB-468 cells (from UniProt O75973 17-258)” the binding was “binds”.

What follows are substances tested against heat shock protein 90α (HSP90α), endogenous in MDA-MB-231 and MDA-MB-468 cells (human (endogenous in MDA-MB-231 and MDA-MB-468)) (UniProt P07900) in the same assay as above.
With “C1QL1-FLAG (complement component 1, q subcomponent-like 1), stably expressed in MDA-MB-231 and MDA-MB-468 cells (from UniProt O75973 17-258)” the binding was “binds”.

The substances below were run against C1QL1-FLAG, transfected into HEK293T cells (UniProt O75973) (assay: co-IP; HEK293T cells transfected with the C1QL1 plasmid and HA-tagged HSP90α or His-tagged VCP (full length or deletion mutants); lysate in RIPA buffer, protein A and G agarose; western blot).
In the case of “HA-tagged HSP90α full length (WT) (from UniProt P07900 1-732)”, the binding is reported as “binds”.
For “HA-tagged HSP90α ΔC (deletion of amino acids 621-732) (from UniProt P07900 1-620) (domain or fragment)”, the binding was “binds”.
With “HA-tagged HSP90α ΔM (deletion of amino acids 265-620) (from UniProt P07900 1-732) (domain or fragment)” the binding was “binds”.
“HA-tagged HSP90α ΔN (deletion of amino acids 1-264) (from UniProt P07900 265-732) (domain or fragment)” was tested, and the binding was “binds”.
“His-tagged VCP full length (WT) (from UniProt P55072 1-806)” was tested, and the binding was “binds”.
For “His-tagged VCP ΔC-tail (deletion of amino acids 763-806) (from UniProt P55072 1-762) (domain or fragment)”, the binding was “binds”.
In the case of “His-tagged VCP ΔD1 (deletion of amino acids 210-463) (from UniProt P55072 1-806) (domain or fragment)”, the binding is reported as “binds”.
In the case of “His-tagged VCP ΔD2 (deletion of amino acids 482-762) (from UniProt P55072 1-806) (domain or fragment)”, the binding is reported as “binds”.
“His-tagged VCP ΔN (deletion of amino acids 1-184) (from UniProt P55072 185-806) (domain or fragment)” was tested, and the binding was “binds”.
